Reference: publication PMC8784504
Results are given in words; binding and its absence hold for the method and conditions named. In cells and extracts the contact can be indirect. Some entries that bind do so weakly or less than the wild type. Sequences can lack the tags named with a protein. One block for each molecule: values may come before it.

The chains behind the UniProt entries cited, without tags or fusion partners.
UniProt O15392: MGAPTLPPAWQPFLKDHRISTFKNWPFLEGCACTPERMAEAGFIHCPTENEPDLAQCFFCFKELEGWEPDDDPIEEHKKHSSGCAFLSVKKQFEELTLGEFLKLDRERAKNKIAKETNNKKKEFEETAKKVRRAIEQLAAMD
UniProt Q92905: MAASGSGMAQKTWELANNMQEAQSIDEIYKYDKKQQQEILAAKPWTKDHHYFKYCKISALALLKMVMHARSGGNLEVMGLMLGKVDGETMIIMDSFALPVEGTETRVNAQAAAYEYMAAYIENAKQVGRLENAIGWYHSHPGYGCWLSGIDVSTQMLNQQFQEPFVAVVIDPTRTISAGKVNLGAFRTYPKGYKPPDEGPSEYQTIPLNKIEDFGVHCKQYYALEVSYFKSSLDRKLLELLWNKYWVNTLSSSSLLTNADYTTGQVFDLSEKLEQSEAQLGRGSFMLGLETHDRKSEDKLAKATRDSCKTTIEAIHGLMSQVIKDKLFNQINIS
UniProt Q7L5N1: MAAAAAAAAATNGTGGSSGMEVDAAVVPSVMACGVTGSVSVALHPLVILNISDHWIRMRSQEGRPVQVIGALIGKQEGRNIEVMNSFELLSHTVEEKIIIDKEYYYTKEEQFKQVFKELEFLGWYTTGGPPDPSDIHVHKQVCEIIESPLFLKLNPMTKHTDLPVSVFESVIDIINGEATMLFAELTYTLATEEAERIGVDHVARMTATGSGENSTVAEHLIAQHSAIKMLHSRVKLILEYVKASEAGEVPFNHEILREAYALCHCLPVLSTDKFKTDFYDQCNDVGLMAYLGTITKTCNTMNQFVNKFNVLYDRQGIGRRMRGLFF

Assays:
[1] = molecular target: T1, recombinant human GST-STAMBPL1 (human) (UniProt Q96FJ0); test: co-IP; only the target purified
T1 sequence: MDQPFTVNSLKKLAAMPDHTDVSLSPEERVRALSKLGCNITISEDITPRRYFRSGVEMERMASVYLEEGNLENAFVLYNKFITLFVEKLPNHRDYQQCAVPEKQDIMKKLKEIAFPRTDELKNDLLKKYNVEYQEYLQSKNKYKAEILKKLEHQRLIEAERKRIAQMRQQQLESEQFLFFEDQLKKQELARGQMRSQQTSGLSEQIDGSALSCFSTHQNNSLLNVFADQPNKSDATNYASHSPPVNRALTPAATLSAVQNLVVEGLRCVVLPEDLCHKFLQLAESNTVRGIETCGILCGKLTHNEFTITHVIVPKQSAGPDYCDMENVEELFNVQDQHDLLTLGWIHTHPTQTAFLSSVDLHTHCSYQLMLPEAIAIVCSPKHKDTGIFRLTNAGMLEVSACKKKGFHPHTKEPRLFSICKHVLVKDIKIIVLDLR

[2] = molecular target: Survivin (human (endogenous in AGS)) (UniProt O15392); test: co-IP; IP of endogenous STAMBPL1, AMSH or Survivin from AGS cell lysates with 1 μg specific antibody overnight at 4 °C, protein A/G magnetic beads, washed four times with RIPA buffer; immunoblot

- binding [1]: binds
Molecule: Flag-CSN5 (from UniProt Q92905 1-334)

- binding [1]: binds
Molecule: Flag-CSN6 (from UniProt Q7L5N1 1-327)

B1: STAM-binding protein like 1 (STAMBPL1) (enzyme, UniProt Q96FJ0 1-436)
chain: T1 sequence
- binding [2]: binds
